Assay results: article PMC3843068
Results are given in words; binding and its absence hold for the method and conditions named. Binding seen in cells or lysates may run through a third protein. A yes stands for co-enrichment or nearness to the bait. Other partners may have been found. Sequences can lack the tags named with a protein.

Sequences of proteins named here, by UniProt entry; tags and fusion partners are left off.
UniProt Q14160: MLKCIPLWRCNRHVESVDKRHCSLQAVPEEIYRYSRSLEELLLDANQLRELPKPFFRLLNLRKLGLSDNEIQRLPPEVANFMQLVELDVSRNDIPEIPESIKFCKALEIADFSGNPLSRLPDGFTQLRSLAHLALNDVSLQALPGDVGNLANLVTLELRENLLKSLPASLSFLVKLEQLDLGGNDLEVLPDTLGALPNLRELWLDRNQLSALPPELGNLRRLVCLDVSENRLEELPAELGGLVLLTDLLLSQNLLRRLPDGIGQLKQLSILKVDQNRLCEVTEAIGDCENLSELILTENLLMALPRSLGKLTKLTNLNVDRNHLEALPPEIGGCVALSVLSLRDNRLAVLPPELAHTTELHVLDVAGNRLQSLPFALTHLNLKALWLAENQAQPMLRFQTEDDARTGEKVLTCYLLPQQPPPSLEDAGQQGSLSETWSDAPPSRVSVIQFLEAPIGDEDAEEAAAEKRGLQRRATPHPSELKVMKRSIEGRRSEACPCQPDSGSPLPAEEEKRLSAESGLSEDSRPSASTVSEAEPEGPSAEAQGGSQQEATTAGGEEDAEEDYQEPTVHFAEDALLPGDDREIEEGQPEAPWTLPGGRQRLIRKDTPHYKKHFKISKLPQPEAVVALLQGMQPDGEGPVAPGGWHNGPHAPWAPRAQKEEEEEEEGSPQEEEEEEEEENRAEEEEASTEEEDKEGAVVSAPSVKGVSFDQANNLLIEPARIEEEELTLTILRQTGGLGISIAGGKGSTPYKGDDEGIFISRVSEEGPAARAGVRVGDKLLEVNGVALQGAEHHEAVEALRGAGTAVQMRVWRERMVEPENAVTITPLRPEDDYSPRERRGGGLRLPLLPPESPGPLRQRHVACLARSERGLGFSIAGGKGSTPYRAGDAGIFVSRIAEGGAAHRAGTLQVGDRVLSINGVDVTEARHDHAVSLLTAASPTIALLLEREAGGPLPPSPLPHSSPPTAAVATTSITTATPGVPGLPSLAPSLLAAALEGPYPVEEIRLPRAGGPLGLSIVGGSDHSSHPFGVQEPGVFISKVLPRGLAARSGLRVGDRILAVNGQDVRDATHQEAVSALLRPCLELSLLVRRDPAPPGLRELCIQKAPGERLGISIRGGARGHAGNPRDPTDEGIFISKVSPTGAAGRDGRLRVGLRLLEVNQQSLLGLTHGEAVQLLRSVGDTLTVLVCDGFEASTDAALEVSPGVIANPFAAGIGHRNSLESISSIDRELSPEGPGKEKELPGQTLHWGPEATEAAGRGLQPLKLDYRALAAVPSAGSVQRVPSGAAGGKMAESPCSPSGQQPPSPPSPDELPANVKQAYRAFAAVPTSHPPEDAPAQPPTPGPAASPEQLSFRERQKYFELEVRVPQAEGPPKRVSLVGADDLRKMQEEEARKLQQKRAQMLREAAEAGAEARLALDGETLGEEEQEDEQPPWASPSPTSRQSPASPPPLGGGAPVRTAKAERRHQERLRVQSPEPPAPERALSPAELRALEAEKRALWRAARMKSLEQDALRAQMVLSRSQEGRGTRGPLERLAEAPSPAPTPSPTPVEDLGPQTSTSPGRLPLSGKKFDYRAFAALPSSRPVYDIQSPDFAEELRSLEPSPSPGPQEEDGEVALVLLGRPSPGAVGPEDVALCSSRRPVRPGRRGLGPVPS
UniProt O75317: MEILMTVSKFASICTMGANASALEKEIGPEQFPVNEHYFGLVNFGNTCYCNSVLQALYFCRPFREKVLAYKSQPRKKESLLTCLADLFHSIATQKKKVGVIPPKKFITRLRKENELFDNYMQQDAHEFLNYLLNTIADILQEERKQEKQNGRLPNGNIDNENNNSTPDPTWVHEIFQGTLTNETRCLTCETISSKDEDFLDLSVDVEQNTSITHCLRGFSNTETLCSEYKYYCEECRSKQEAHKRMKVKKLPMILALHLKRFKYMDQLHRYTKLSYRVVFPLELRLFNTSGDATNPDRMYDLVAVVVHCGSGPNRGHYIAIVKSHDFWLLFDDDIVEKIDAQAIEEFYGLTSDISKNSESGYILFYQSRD
UniProt Q8TAF3: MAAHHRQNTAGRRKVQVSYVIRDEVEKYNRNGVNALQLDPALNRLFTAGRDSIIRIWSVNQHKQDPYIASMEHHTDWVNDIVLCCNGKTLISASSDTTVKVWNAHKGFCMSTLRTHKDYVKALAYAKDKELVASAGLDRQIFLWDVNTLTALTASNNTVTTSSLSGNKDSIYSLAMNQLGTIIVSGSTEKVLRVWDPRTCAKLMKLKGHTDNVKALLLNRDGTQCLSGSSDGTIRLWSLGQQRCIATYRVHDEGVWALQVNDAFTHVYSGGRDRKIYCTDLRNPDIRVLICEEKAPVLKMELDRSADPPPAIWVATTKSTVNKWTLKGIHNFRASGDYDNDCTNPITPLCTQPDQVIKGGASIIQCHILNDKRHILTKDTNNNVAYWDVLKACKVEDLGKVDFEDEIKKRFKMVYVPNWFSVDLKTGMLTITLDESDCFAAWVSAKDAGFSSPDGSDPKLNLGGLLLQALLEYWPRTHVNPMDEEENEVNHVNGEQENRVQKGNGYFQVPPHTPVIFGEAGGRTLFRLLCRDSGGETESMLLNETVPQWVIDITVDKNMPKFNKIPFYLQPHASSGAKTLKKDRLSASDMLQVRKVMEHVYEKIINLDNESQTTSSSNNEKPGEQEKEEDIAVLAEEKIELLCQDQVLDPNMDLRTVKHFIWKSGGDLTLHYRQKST

T1: SFB-triple-tagged PHLPP1 full-length (UniProt O60346)
T1 sequence: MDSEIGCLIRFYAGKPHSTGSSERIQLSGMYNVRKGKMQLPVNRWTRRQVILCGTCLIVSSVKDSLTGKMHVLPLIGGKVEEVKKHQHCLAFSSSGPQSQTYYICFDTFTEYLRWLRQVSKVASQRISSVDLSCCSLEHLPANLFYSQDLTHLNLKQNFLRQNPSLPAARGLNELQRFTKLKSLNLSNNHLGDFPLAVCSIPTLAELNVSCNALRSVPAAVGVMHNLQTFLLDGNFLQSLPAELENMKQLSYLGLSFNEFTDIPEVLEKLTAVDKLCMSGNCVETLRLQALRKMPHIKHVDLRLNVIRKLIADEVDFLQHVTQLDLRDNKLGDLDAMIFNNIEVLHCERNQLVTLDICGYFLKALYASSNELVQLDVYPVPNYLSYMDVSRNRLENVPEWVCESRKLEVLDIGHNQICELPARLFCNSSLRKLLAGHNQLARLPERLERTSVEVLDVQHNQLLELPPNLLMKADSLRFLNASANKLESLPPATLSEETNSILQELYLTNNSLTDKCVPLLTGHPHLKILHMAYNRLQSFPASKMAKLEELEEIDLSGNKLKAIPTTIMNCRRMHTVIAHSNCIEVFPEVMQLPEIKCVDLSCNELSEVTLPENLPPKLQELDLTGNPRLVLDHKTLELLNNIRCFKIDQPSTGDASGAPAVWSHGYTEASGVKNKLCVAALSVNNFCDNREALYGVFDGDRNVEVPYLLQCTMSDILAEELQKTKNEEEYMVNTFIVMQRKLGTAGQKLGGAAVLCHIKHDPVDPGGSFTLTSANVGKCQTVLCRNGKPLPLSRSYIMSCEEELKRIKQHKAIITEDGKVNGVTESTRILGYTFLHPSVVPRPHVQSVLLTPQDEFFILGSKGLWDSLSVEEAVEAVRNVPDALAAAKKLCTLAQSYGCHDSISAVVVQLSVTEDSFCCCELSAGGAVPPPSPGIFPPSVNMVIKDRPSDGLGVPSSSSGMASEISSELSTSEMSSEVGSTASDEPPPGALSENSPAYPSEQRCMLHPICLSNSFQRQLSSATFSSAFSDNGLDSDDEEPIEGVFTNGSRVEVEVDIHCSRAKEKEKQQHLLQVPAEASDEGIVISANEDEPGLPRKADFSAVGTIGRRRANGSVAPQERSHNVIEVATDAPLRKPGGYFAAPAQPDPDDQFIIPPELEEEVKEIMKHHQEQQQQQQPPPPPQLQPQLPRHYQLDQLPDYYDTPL


Each molecule was assayed against T1, SFB-triple-tagged PHLPP1 full-length (assay: affinity purification with mass spectrometry; tandem affinity purification of SFB-PHLPP1 from transfected 293T lysate (NETN buffer: 20 mM Tris-HCl pH 8.0, 100 mM NaCl, 1 mM EDTA, 0.5% Nonidet P-40): streptavidin-Sepharose beads, biotin elution, S-protein-agarose beads, 4 °C; SDS-PAGE and mass spectrometry).

Molecule | binding
hScrib (from UniProt Q14160 1-1655) | binds
SUGT1 (protein, UniProt Q9Y2Z0 1-365) MAAAAAGTATSQRFFQSFSDALIDEDPQAALEELTKALEQKPDDAQYYCQRAYCHILLGNYCVAVADAKKSLELNPNNSTAMLRKGICEYHEKNYAAALETFTEGQKLDIETGFHRVGQAGLQLLTSSDPPALDSQSAGITGADANFSVWIKRCQEAQNGSESEVWTHQSKIKYDWYQTESQVVITLMIKNVQKNDVNVEFSEKELSALVKLPSGEDYNLKLELLHPIIPEQSTFKVLSTKIEIKLKKPEAVRWEKLEGQGDVPTPKQFVADVKNLYPSSSPYTRNWDKLVGEIKEEEKNEKLEGDAALNRLFQQIYSDGSDEVKRAMNKSFMESGGTVLSTNWSDVGKRKVEINPPDDMEWKKY | binds

The remaining lines, values ahead:

binding | Molecule
binds | endogenous USP12 (from UniProt O75317 1-370) (enzyme)
binds | endogenous WDR48 (from UniProt Q8TAF3 1-677)
